The data set deals with T1, MutS (Thermus aquaticus) (UniProt Q56215).
T1 sequence (looked up, limits assumed): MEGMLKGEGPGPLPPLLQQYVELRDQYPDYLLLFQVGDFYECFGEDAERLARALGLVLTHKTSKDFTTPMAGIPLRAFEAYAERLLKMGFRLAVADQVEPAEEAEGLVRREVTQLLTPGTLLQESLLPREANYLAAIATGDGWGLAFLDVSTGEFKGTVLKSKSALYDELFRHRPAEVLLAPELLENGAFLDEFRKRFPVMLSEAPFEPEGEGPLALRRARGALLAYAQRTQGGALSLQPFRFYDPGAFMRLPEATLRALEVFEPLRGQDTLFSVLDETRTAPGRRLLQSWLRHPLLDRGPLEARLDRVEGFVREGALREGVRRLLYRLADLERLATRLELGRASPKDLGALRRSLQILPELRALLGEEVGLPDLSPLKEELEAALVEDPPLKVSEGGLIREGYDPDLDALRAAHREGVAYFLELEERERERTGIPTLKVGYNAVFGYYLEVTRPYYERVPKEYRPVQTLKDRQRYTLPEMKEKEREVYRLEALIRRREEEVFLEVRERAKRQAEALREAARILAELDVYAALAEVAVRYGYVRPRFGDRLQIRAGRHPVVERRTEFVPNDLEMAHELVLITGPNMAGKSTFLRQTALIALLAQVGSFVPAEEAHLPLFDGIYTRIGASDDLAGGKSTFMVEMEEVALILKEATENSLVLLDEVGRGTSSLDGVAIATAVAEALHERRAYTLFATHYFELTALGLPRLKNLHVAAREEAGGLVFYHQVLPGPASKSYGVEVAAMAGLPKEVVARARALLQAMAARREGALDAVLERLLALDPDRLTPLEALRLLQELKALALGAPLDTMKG
Briefly: binding assay. The following applies: probe strand 5'-thiol immobilised on Au-bridged nanoparticle; single-nanoparticle LSPR kinetics; kbinding 2.97e6 M-1 s-1; 100 mM NaCl, 5 mM MgCl2, pH 7.5, 18 C; purified recombinant protein; protein details: vendor Nippon Gene Co. (Tokyo); variant of homoDNA duplex (perfect match).

Construct, isoform or probe ends are uncertain for at least one entry. Where a protein sequence is shown, tags need not be part of it.

As a reminder, the Kd is the concentration at which binding is half-saturated.

In the case of “ATTGAAAGTTGCAGAATCTGCCCAGGGTCCAGCTGCTGCTCATACTACTGA (double strand) [GT mismatch duplex (4956A>G target on Probe-GT)]”, the Kd was determined as 4.46 nM.

(Values after patent US20220364162.)
